In patent US20070149763A1 (Bristol-Myers Squibb, published 2007):
No constants are given. Whether binding was seen depends on the method and setting. Some binding calls cover weakened binding; strength is not graded here.

Protein sequences, listed by entry. Tags and fused reporters are not part of them. Lines headed by an entry give the natural chain unless they say otherwise; changes in a name come on top. Residues count along the entry.
UniProt P56817, residues 14-454: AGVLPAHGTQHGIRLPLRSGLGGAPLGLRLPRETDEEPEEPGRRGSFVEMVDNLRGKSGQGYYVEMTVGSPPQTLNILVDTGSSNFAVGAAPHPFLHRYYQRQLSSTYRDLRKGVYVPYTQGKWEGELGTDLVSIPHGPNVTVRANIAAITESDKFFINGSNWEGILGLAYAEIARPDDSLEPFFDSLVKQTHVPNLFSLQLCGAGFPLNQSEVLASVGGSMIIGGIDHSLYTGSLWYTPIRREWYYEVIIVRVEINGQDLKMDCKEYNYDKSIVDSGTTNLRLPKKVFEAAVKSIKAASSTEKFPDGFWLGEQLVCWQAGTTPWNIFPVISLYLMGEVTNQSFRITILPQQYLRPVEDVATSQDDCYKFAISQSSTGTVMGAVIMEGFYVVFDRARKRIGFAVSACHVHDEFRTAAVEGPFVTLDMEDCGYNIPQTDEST

T1: BACE-1 (T7-BACE1(A14-T454/R56K/R57K)) (Homo sapiens (Human)) (UniProt P56817)
T1 sequence: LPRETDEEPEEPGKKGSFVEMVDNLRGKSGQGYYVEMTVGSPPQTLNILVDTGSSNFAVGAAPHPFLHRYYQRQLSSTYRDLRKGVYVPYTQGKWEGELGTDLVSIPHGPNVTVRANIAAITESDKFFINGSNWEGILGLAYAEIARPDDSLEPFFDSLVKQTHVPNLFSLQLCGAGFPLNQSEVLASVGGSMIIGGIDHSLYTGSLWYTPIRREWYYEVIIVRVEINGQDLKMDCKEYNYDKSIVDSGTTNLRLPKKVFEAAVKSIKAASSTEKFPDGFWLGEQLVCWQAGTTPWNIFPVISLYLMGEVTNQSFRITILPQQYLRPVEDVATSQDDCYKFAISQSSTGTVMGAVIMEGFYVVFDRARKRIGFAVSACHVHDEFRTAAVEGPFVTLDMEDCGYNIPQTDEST


Key:
[1] = target: T1, BACE-1 (T7-BACE1(A14-T454/R56K/R57K)) (Homo sapiens (Human)); test: X-ray crystallography, peptide soaked into BACE-1/DPH-153979 co-crystal
[2] = target: catalytic domain of human BACE purified from E. coli cells (human) (UniProt P56817); test: fluorescence anisotropy binding assay

| Binder | binding [1] | binding [2] |
| --- | --- | --- |
| NLTTYPYFIPLP (N-terminal acetyl (no C-terminal carboxy amide) in the synthetic peptide) […] | binds |  |
| YPYFIPL (C-terminal Alexa488 through a linker (n=1, FIG. 4)) [Molecule Y1 (YPYFIPL with C-terminal Alexa488)] |  | binds |
